# Assay results as given in PubChem BioAssay AID588499 (NMMLSC, 2011).
# The whole screen tested about 360,000 compounds, of which about 610 (0.17%) were called active. The shares of active, inactive and inconclusive entries below differ from those in the screen. Rule as the data show it: active = inhibition above about 30%; inconclusive = no clear call, values can overlap the other calls; inactive = below that.
# System: Botulinum neurotoxin type A light chain protease (Clostridium botulinum A str. ATCC 3502)
# Assay: blockers of BoNT/A LC substrate cleavage – biochemical, flow cytometry, MLPCN library, primary screen (AID 588499); also: plate controls were buffer without enzyme for full effect and enzyme alone for no effect
# Conditions: multiplex microsphere protease substrate cleavage, at 10 µM, hits give high values
row,SMILES,inhibition
1,CCN(CC)C(=O)c1ccc2c(=O)n(CCOC)c(=S)[nH]c2c1,inconclusive: 2.6%
2,CCC(C)Nc1nc2c(C)cccn2c(=O)c1C=Nc1ccc(OC)cc1 (configuration not stated),inactive: -0.8%
3,CC(=O)c1cc(C)ccc1OC(=O)c1ccco1,inconclusive: -2%
4,Cn1nccc1C(=O)OCC(=O)Nc1nc(-c2ccccc2)cs1,inconclusive: -0.3%
5,Cc1cc(C(F)(F)F)cc(NNC(=O)NC(=O)c2c(F)cccc2Cl)n1,inconclusive: -46.2%
6,Brc1cnc2nc(SC/C=C/c3ccccc3)[nH]c2c1,inactive: 1.8%
7,ClC1(Cl)CC1CSc1nnc(-c2ccncc2)o1 (configuration not stated),inconclusive: -3.4%
8,CCCN1CN(Cc2ccco2)c2nc3ccccc3n2C1,inconclusive: 5.1%
9,CCn1c(-c2cccnc2Cl)nc2cc(Cl)c(Cl)cc21,inconclusive: 0.3%
10,Cc1noc(C)c1C(=O)OCC(=O)c1c[nH]c2ccccc12,active: 47.2%
11,Cc1ccc(-n2nc3c(=O)n(CCCC(=O)NC4CCC(C)CC4)nc(C)c3c2C)cc1 (configuration not stated),inactive: -1.7%
12,c1ccc2c(-c3nc(C4CCCCC4)no3)cc(-c3ccncc3)nc2c1,inconclusive: 2.6%
13,CCc1ccc(-c2csc3nc[nH]c(=O)c23)cc1,inconclusive: -4.5%
14,Cc1ccc(SCC(=O)OCC(=O)N(CC(C)C)c2c(N)n(Cc3ccccc3)c(=O)[nH]c2=O)c(C)c1,inactive: -0.4%
15,CCN1C(=O)/C(=C\N2CCN(c3ccc(F)cc3)CC2)SC1=S,inconclusive: 0.9%
16,O=C(Cn1c(=S)[nH]c2ccccc2c1=O)NCCc1ccccc1,inactive: -0.5%
17,Cc1nn(Cc2ccc(Cl)cc2Cl)c(C)c1NC(=O)CCl,inconclusive: 3.3%
18,COc1ccc(C=O)cc1CN1CCCN(Cc2ccccc2F)S1(=O)=O,inactive: -0.6%
19,CCn1c(NC(=O)c2ccccc2F)c(-c2cccs2)c(=O)c2ccccc21,inactive: -0.3%
20,Cc1cc(Cl)ccc1C(=O)C1CCCN(C(=O)c2cncs2)C1 (configuration not stated),inactive: 0.2%
21,CCOC(=O)CSc1nc2sc3c(c2c(=O)n1C1CCCCC1)CCN(C)C3,active: 74.2%
22,Cc1ccc(/C=N/OC(=O)c2c(C)noc2-c2snnc2C)cc1,inconclusive: -5.9%
23,Cc1ccc(N2CCN(C(=O)NC3CCCCC3)CC2)c(C)c1,inconclusive: -1.7%

# Structures above containing fluorine:
row,SMILES,inhibition
5,Cc1cc(C(F)(F)F)cc(NNC(=O)NC(=O)c2c(F)cccc2Cl)n1,inconclusive: -46.2%
15,CCN1C(=O)/C(=C\N2CCN(c3ccc(F)cc3)CC2)SC1=S,inconclusive: 0.9%
18,COc1ccc(C=O)cc1CN1CCCN(Cc2ccccc2F)S1(=O)=O,inactive: -0.6%
19,CCn1c(NC(=O)c2ccccc2F)c(-c2cccs2)c(=O)c2ccccc21,inactive: -0.3%

# (more compounds)

row,SMILES,inhibition
1,O=C(N/N=C\c1ccccc1OCc1ccccc1)c1ccco1,inactive: -0.2%
2,CC(=NNC(=S)N1CCC1)c1ccccn1,inactive: 0.6%
3,CCOc1ccccc1N1CCN(Cc2cccc(OC)c2O)CC1,inconclusive: -6.9%
4,C=C(C)CN(CC)c1nc(N)c(C#N)c(CC#N)c1C#N,inconclusive: 0.3%
5,N#CC1=C(N)OC2=C(C(=O)CCC2)C1c1ccccc1 (configuration not stated),inconclusive: 5.3%
6,COc1cccc(C2C(C(=O)OC(C)C)=C(C)Nc3ncnn32)c1 (configuration not stated),inconclusive: -1.1%
7,COc1ccc(-c2cc3c(c4c2ccn4C)C2CCC3C2)cn1 (configuration not stated),active: 52.1%
8,Cc1ccc(NC(=O)/C=C/c2ccco2)nc1,inactive: 0%
9,COCc1cc(=O)[nH]c(-c2ccccc2OC(F)(F)F)n1,inconclusive: -19.5%
10,CCN(C1CCCCC1)S(=O)(=O)CCNC(=O)c1ccc2c(c1)OCO2,inconclusive: 5.7%
11,CCCSc1nc(N)c2c3c(sc2n1)CN(C)CC3,inconclusive: 3.1%
12,O=[N+]([O-])c1cccc(CN2CCC(Cc3ccccc3)CC2)c1,inconclusive: -3.4%
13,COc1cccc(-c2cc(C(F)(F)F)nc(-n3cncn3)n2)c1,inconclusive: -4.8%
14,Cc1cc(C)cc(N2CCCC2=O)c1,inconclusive: -1.8%
15,O=C(Nc1ccccc1)Nc1ccno1,inconclusive: -13.6%
16,Fc1ccc(N2Cc3ccsc3C=N2)cc1,inactive: -2.2%
17,CC(=O)Nc1cccc(C(=O)Nc2cc(C(F)(F)F)ccc2-n2cncn2)c1,inactive: -0.2%
18,Nc1ncnc2c1ncn2[C@@H]1O[C@H](CNCc2ccccc2OCc2ccc(Cl)cc2Cl)[C@@H](O)[C@H]1O,inactive: 0%
19,O=C(N/N=C/c1cccnc1)c1cccc(Br)c1,inconclusive: -4.3%
20,COc1ccc(CCn2c(C(C)C)nc3oc4ccccc4c(=O)c3c2=O)cc1,inconclusive: 31.9%
21,O=C(CN1CCCCCC1)N1c2ccccc2C=Cc2ccccc21,inconclusive: 2.7%
22,CCOc1cc(CN2CCCC(N3CCN(c4ccc(F)cc4)CC3)C2)ccc1OC (configuration not stated),inconclusive: -2.9%
23,CCCSc1nsc(N)n1,inconclusive: -5.7%

row,SMILES,inhibition
1,Cc1nnc(-c2cnn(-c3ccccc3)c2N)n1Cc1ccncc1,inconclusive: 0%
2,CCOC(=O)c1ccc(-c2ccc(C=O)o2)cc1,inconclusive: 21.7%
3,OC(CCCCN1CCCCC1)c1ccccc1 (configuration not stated),inconclusive: 1.2%
4,O=C1CC(NC23CC4CC(CC(C4)C2)C3)C(=O)N1c1ccc2c(c1)OCO2 (configuration not stated),inconclusive: -2.1%
5,Cc1ccc(NC(=O)c2ncn(CCCN3CCN(c4ncccn4)CC3)n2)cc1C,inactive: -0.3%
6,COc1ccccc1/C=C/C(=O)c1c2c(c(C)[nH]c1=O)CCCC2,inconclusive: 3.6%
7,O=c1sc(Nc2ccccc2)nc2ccsc12,inconclusive: 6.7%
8,CC(OC(=O)c1ccc([N+](=O)[O-])s1)C(=O)NC1CCCCC1C (configuration not stated),inactive: 1%
9,Cc1c(C(=O)NCc2ccc3c(c2)cc(C)n3C)cccc1[N+](=O)[O-],active: 77.9%
10,O=C(NCCCn1ccnc1)C(=O)c1cn(CC(=O)N2CCCCCC2)c2ccccc12,active: 30.5%
11,CCCOc1ccc(C(=O)NNC(=S)NC(=O)c2cc(-c3ccc(Cl)cc3)nc3ccccc23)cc1,inactive: 1.1%
12,O=C(NCc1ccco1)C1CCN(c2ccc(N3CCOCC3)nn2)CC1,inactive: -0.6%
13,COC(=O)c1ccc(C)c(NC(=O)c2nn(C)c(=O)c3ccccc23)c1,inconclusive: 0.2%
14,CCCCN1C(=O)C(CC(=O)NCc2cccc3ccccc23)CC(C(=O)N2CCOCC2)=C1C (configuration not stated),inactive: -0.6%
15,CCCn1c(SCC(=O)Nc2cc(C(=O)O)ccc2C)nc2sc3c(c2c1=O)CCC3,inactive: 0.1%
16,COc1ccc(OC)c(NC(=O)COC(=O)CN2C(=O)NC3(CCCC3)C2=O)c1,inactive: 1.2%
17,CCCCN(C)C(=O)c1[nH]c(C(F)(F)F)nc1-c1ccccc1,inactive: -0.2%
18,COc1cccc(NC(=O)Cc2nnc(SCC(=O)NC(C)c3ccccc3)n2C)c1 (configuration not stated),inconclusive: -7.4%
19,CC(NC(=O)/C(C#N)=C1\N=C(NC(=O)c2cccs2)c2ccccc21)c1ccccc1 (configuration not stated),active: 30%
20,Cc1ccc(C(=O)NC(=S)/C=C2\N(C)c3ccccc3C2(C)C)cc1,active: 42.1%
21,O=C(OCC(O)C1OC(c2ccccc2)OC(COC(=O)c2ccccc2)C1O)c1ccccc1 (configuration not stated),inactive: 0.1%
22,Cc1cccc(C)c1N1CCN(C(c2cc3ccccc3o2)c2nnnn2C(C)(C)C)CC1 (configuration not stated),inactive: -0.2%
23,Cc1cc(NC(=O)CCNS(=O)(=O)c2cc(Br)cnc2N)ccc1Br,inconclusive: -3.5%

row,SMILES,inhibition
1,COc1ccccc1NC(=O)c1ccc2nc(-c3ccccc3)c(-c3ccccc3)nc2c1,inconclusive: 3.9%
2,Cc1ccc(C(C(=O)NC2CCCC2)N(C(=O)c2csnn2)C2CCCC2)o1 (configuration not stated),inconclusive: 2.4%
3,O=C(Nc1nc2c(s1)CCCC2)c1cc2n(n1)C(C(F)(F)F)CC(C1CC1)N2 (configuration not stated),inconclusive: -0.3%
4,Cc1nc(SCc2nc3c(F)cccc3[nH]2)c2oc3ccccc3c2n1,inactive: -0.9%
5,CN1C(=O)C(Cc2nc3ccccc3c(=O)n2-c2ccccc2)c2ccccc21 (configuration not stated),inconclusive: 1.2%
6,COc1ccc(O)c(C(=O)c2cc(SCC(=O)O)c3nc4sc5c(c4c(=O)n3c2)CCCC5)c1,inactive: 0.1%
7,COC(=O)C1=C(O)/C(=C/c2ccc(OCC(=O)Nc3ccc(OC)cc3)cc2)N=C1C,inactive: 0.2%
8,COc1cccc(CN(C)Cc2cc(=O)oc3c(C)c(C)ccc23)c1,inactive: -2%
9,CCCC[N+]12CCC(CC1)C(C(O)(c1ccccc1)c1ccccc1)C2 (configuration not stated),inconclusive: -41.4%
10,C=CCN1CC(c2nc3ccccc3n2Cc2ccccc2)CC1=O (configuration not stated),inconclusive: -0.9%
11,COC(=O)CC1(CC(N)=O)SCCS1,inactive: -0.3%
12,CCSc1nnc(-c2ccncc2)n1Cc1ccccc1,inconclusive: 0.2%
13,CCOC(=O)c1c(/N=C/c2c(O)n(-c3ccccc3F)c(=S)[nH]c2=O)sc2c1CCCC2,active: 57.4%
14,Cc1ccc(OC(C)C(=O)N2CCCc3ccccc32)cc1 (configuration not stated),inconclusive: -4.6%
15,Cc1ccc(NC(=O)C2(C)CCN2CCc2ccccc2)cc1 (configuration not stated),inactive: -0.1%
16,O=C(CCc1ccccc1)NNC(=O)COc1ccccc1,inconclusive: -3.8%
17,COc1ccccc1CN1C(=O)CN(C2CCCC2)C(=O)C1c1ccc(F)cc1 (configuration not stated),inconclusive: -2.3%
18,CCCCNC(=O)O[C@@H]1C[C@H]2CCC(=O)N3CC[C@@H](C1)[C@@H]23,inactive: -0.3%
19,CCCCOCCCNC(=O)N[C@H](C(=O)OC)C(C)CC (some centres not stated),inconclusive: 11.8%
20,COc1ccc(C(=O)N/C(=C\c2cn(C)c3ccccc23)C(=O)OCCN(C)C)cc1,inconclusive: -30.8%
21,COc1ccc(N=C(C)c2c(O)[nH]c(=O)[nH]c2=O)cc1,inconclusive: 0.9%
22,CC(C)c1[nH]nc2c1C(C1C=CCCC1)C(C#N)=C(N)O2 (configuration not stated),inconclusive: 9.4%
23,O=C(Nc1ccncc1)c1ccc(Cl)c(S(=O)(=O)N2CCc3ccccc32)c1,inconclusive: 1.6%

# 2 compounds picked at random from the list so far, as already listed:
row,SMILES,inhibition
5,CN1C(=O)C(Cc2nc3ccccc3c(=O)n2-c2ccccc2)c2ccccc21 (configuration not stated),inconclusive: 1.2%
19,CCCCOCCCNC(=O)N[C@H](C(=O)OC)C(C)CC (some centres not stated),inconclusive: 11.8%
